The values that follow come from PubChem BioAssay AID493014 (National Center for Advancing Translational Sciences (NCATS), 2011).

The nature of this test: qHTS Assay to Find Inhibitors of Chronic Active B-Cell Receptor Signaling. The note with it: ABC-DLBCL IkBa-CBG/CBR reporter, luminescence ratio (green luciferase fused to IkBa over red control in TMD8 lymphoma cells), 4 h. In outline: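 Concentration-response series (up to 46 uM) were applied to TMD8 dual-reporter cells for 4 h at 37C with doxycycline. Green/red ratio, after filter-overlap correction, defined %Activity; red signal alone was normalised to basal cells and zero luminescence.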

The mark [1] stands for this setting: measured here: CBR red luminescence, cell number.
[2] abbreviates: measured here: IkBa-CBG green luminescence.

Each structure is given as a SMILES string. The list shows a part of the results. Further columns of the screen follow, without active or inactive calls. The list favours compounds with an active or inconclusive main result. Words in brackets tell the shape of the fitted curve; partial curves, single points and poor fits give uncertain potencies.

Turning to `COc1cccc(Nc2nc(N)nc(-c3oc4ccccc4c3C)n2)c1`, under setting [1], the AC50 was 1.58 µM [falling, full curve]. Still for that read-out and setting: the figure for `c1ccc(-c2csc3ncnc(N4CCOCC4)c23)cc1` is 22.4 µM [rising, partial curve, poor fit]. As for `O=C(Nc1ccccc1)C1=C[C@H](c2ccc(Br)cc2)C[C@H](OCc2ccc(CO)cc2)O1`, the AC50 under setting [1] is 35.5 µM [falling, single point]. With `Cc1nc(NC(=O)c2c(-c3ccccc3Cl)noc2C)sc1C`, the AC50 is 1.78 µM [falling, partial curve] under setting [1] and 3.16 µM [rising, full curve, poor fit] under setting [2].

Take `CC(C)=NOCc1ccc(-c2cn([C@@H]3COC[C@H]3O)nn2)cc1`: the AC50 under setting [1] was 25.9 µM [rising, single point]. Regarding `Cc1nc2nc(C)c(NS(=O)(=O)c3ccc(Cl)s3)c(=O)n2[nH]1`, the AC50 under setting [1] was 1 µM [falling, full curve, poor fit]. On the same count and under the same terms, the figure for `O=C(NNc1cccc([N+](=O)[O-])c1)/C(=C\c1cccnc1)NC(=O)c1ccccc1` is 15.8 µM [rising, single point]; for `Clc1cccc(CSc2nccn2-c2ccccc2)c1` it is 0.112 µM [falling, full curve, poor fit]. Take `O=C1CC(NS(=O)(=O)c2cccnc2)CN1c1ccc(F)cc1` (stereo not drawn): the AC50 under setting [1] was 18.4 µM [rising, partial curve].

`COC(=O)Nc1c(-c2ccccc2)nc2ccccn12`: under setting [2], the AC50 is 5.8 µM [rising, partial curve, poor fit].

With `COc1ccc(-c2nnc(-c3cc(OC)c(OC)c(OC)c3)o2)cc1OC`, the AC50 under setting [1] is 14.6 µM [rising, partial curve, poor fit]. Turning to `O=C(CCN1CCN(Cc2ccccc2)CC1)NNC(=O)Nc1cccc(C(F)(F)F)c1`, the AC50 under setting [1] is 22.4 µM [falling, single point]. In the case of `Cc1cc(C)c(S(C)(=O)=O)c(Oc2cccc(C(F)(F)F)c2)n1`, the AC50 under setting [1] is 11.2 µM [rising, partial curve]. Same read-out and setting: the value for `COc1cccc(NC(=O)CNC(=O)N2CC(=O)Nc3ccccc32)c1` was 10 µM [falling, partial curve, poor fit]; that for `COc1ccc2c(c1)[C@H]1[C@H](CO2)[C@H](c2ccccc2)[C@]2(C)C(=O)Nc3ccc(C)cc3C(=O)N12` was 5.8 µM [falling, full curve]. For `Cc1cc2c(c(=O)n1CCN(C)C)C(c1ccc(Cl)cc1)C(C#N)=C(N)O2` (stereo not drawn), the AC50 under setting [1] is 20.6 µM [falling, single point]. Regarding `COc1ccc(OC)c(NS(=O)(=O)c2ccc3c(c2)n(C)c(=O)n3C)c1`, the AC50 under setting [1] is 3.66 µM [rising, full curve, poor fit]. As for `Cc1csc(NC(=O)COc2ccc3c(C)cc(=O)oc3c2)n1`, under setting [1], the AC50 is 0.326 µM [falling, full curve, poor fit].

On to `CCOC(=O)C1=C(C)NC(=O)NC1c1cccnc1` (stereo not drawn), for which, under setting [1], the AC50 was 17.8 µM [rising, single point]. Take `Cc1ccccc1NC(=O)c1sc2nc3c(c(-c4ccco4)c2c1N)CCC3`: under setting [1], the AC50 is 1.41 µM [falling, full curve]. `COc1ccccc1CNC(=O)CSc1n[nH]c(N)n1`: under setting [1], the AC50 is 12.6 µM [rising, single point]. `c1ccc(Nc2nc(N3CCOCC3)nc(N3CCOCC3)n2)cc1`: under setting [1], the AC50 was 4.61 µM [falling, partial curve, poor fit]. `O=C(Nc1ccc(Cl)cc1)c1cc(Br)ccc1OCC(=O)N1CCOCC1`: the AC50 under setting [1] is 2.24 µM [falling, full curve, poor fit]. Consider `Cc1ccccc1-n1c(SCc2csc(Nc3ccccc3)n2)nnc1-c1cccnc1`, for which, under setting [1], the AC50 is 14.6 µM [falling, partial curve]. Same read-out and setting: the figure for `O=C(CSc1ncn[nH]1)N1N=C2/C(=C/c3ccccc3)CCCC2C1c1ccccc1` (stereo not drawn) is 20.6 µM [falling, single point]. Regarding `Cc1cc(=O)oc2cc(OCC(=O)NC3(C#N)CCCCC3)c(Cl)cc12`, the half-maximal activity concentration (AC50) under setting [1] is 5.17 µM [rising, full curve].

For `O=C(N/N=C1\CCSC1)c1cc(Cl)ccc1O`, the AC50 under setting [1] is 0.398 µM [falling, full curve, poor fit]. Consider `Cc1nc2sc(C(c3cccc(F)c3)N3CCC(O)CC3)c(O)n2n1` (stereo not drawn), for which the AC50 under setting [1] is 17.8 µM [rising, partial curve, poor fit]. With `CCSc1ccccc1C(=O)N1CCC2(CC1)CC(=O)c1ccccc1O2`, the AC50 under setting [1] is 1.03 µM [falling, partial curve, poor fit]. On to `COc1ccc(CC(=O)OCC(=O)c2ccc(OC)c(OC)c2)cc1`, for which the AC50 under setting [1] was 2.59 µM [rising, partial curve]. On to `O=C(Nc1ccccc1)c1ccn[nH]1`, for which the AC50 under setting [1] is 0.398 µM [falling, full curve]. Regarding `CCOc1ccccc1N(CC(=O)Nc1ccc(OC)cc1)S(=O)(=O)c1ccccc1`, the AC50 under setting [1] was 35.5 µM [falling, single point].

`NNC(=O)CNC(c1ccccc1)c1cc(Br)ccc1NC(=O)c1ccc(Br)cc1` (stereo not drawn): under setting [1], the AC50 is 13 µM [falling, single point]. Take `O=C(N/N=C/c1ccc(Br)s1)c1cccnc1`: the AC50 is, setting by setting: under setting [1], 15.8 µM [falling, partial curve]; under setting [2], 25.1 µM [falling, single point]. Regarding `Cc1ccc(NC(=O)NC(=O)CSc2nnc(-c3ccc(OC(F)F)cc3)n2N)c(C)c1`, the AC50 under setting [1] was 23.1 µM [rising, single point].

As for `CC(OC(=O)C1CSC2(c3ccc(F)cc3)CCC(=O)N12)C(=O)NC(N)=O` (stereo not drawn), the AC50 under setting [1] is 3.16 µM [falling, partial curve, poor fit]. For `COC(=O)C1=C(C)N(Cc2ccccc2)C(=NCC2CC2)N[C@H]1c1ccc(Br)cc1`, the AC50 by setting is: under setting [1], 35.5 µM [falling, single point]; under setting [2], 20 µM [rising, single point]. Regarding `Cc1ccccc1-c1noc(-c2cccs2)n1`, the AC50 under setting [1] was 29.1 µM [rising, single point]. For `O=C(/C=C/Nc1ccc(F)c(Cl)c1)c1ccco1`, the AC50 under setting [1] was 10.3 µM [falling, partial curve, poor fit]. The same measure, in the same setting: the figure for `CCCCn1c(SCC(=O)NCc2ccco2)nc2cc(S(N)(=O)=O)ccc21` is 16.4 µM [falling, single point].
